Experimental data: PubChem BioAssay AID1259308 (NCATS, 2017)
Here is a random part of about 59,000 deposited reagents. Of all reagents, about 1,510 (2.6%) were called active. 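Calls use total luciferase alone and ignore viability, so some active siRNAs may act by altering cell number.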 The numbers tell different reagents against one gene apart. Not all columns of the deposit are shown.

Test: 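Knock-downs that increase output of a recombinant reporter protein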 (primary screen)
Cell system: human HEK293 embryonic kidney cells stably expressing firefly luciferase (HEK-CMV-Luc2-Hygro)
Reagent: single siRNA against human genes, 0.8 pmol siRNA per well
Timing: 72 h
Measured: 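Reporter luminescence and viable-cell signal on separate replicate plates, given as percent of non-targeting control and median/MAD z-scores, plus per-cell luciferase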
Reading the numbers: total luciferase, z-score: higher = more reporter protein produced
Hit rule: 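An siRNA counts as active if its total luciferase robust z-score exceeds 3; genes with two or more such siRNAs out of three were retested with fresh siRNAs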
Meaning of the calls: active = raised luciferase; inactive = no rise

Target gene | siRNA no. | total luciferase, z-score | Outcome
SLC35A4 | 1 | 1.16 | inactive
SLC35A4 | 2 | -0.17 | inactive
SLC35A4 | 3 | 1.39 | inactive
LINC00479 (long independently transcribed non-coding RNA 479) | 1 | -0.368 | inactive
LINC00479 (long independently transcribed non-coding RNA 479) | 2 | -0.151 | inactive
LINC00479 (long independently transcribed non-coding RNA 479) | 3 | 1.36 | inactive
LSM5 | 1 | 0.557 | inactive
LSM5 | 2 | 1.36 | inactive
LSM5 | 3 | -0.802 | inactive
EPB41L4B (erythrocyte membrane protein band 4.1 like 4B) | 1 | -0.305 | inactive
EPB41L4B (erythrocyte membrane protein band 4.1 like 4B) | 2 | 0.11 | inactive
EPB41L4B (erythrocyte membrane protein band 4.1 like 4B) | 3 | -1.53 | inactive
SUPT20H (SPT20 homolog, SAGA complex component) | 1 | 1.7 | inactive
SUPT20H (SPT20 homolog, SAGA complex component) | 2 | -1.71 | inactive
SUPT20H (SPT20 homolog, SAGA complex component) | 3 | 2.72 | inactive
KRT6C (keratin 6C) | 1 | -0.872 | inactive
KRT6C (keratin 6C) | 2 | 1.31 | inactive
KRT6C (keratin 6C) | 3 | -0.223 | inactive
SRGAP3 (SLIT-ROBO Rho GTPase activating protein 3) | 1 | 2.72 | inactive
SRGAP3 (SLIT-ROBO Rho GTPase activating protein 3) | 2 | -0.637 | inactive
SRGAP3 (SLIT-ROBO Rho GTPase activating protein 3) | 3 | 0.31 | inactive
TMEM186 (transmembrane protein 186) | 1 | 3.08 | active
TMEM186 (transmembrane protein 186) | 2 | 1.68 | inactive
TMEM186 (transmembrane protein 186) | 3 | 0.695 | inactive
FAT4 (FAT atypical cadherin 4) | 1 | 0.419 | inactive
FAT4 (FAT atypical cadherin 4) | 2 | -0.23 | inactive
FAT4 (FAT atypical cadherin 4) | 3 | 0.447 | inactive
CABP2 (calcium binding protein 2) | 1 | 0.406 | inactive
CABP2 (calcium binding protein 2) | 2 | -0.335 | inactive
CABP2 (calcium binding protein 2) | 3 | 1.88 | inactive
LUC7L (LUC7 like) | 1 | 1.36 | inactive
LUC7L (LUC7 like) | 2 | -1.5 | inactive
LUC7L (LUC7 like) | 3 | 0.149 | inactive
RNASEL (ribonuclease L) | 1 | -1.03 | inactive
RNASEL (ribonuclease L) | 2 | -0.725 | inactive
RNASEL (ribonuclease L) | 3 | -1.11 | inactive
ZNF831 (zinc finger protein 831) | 1 | 1.49 | inactive
ZNF831 (zinc finger protein 831) | 2 | -1.1 | inactive
ZNF831 (zinc finger protein 831) | 3 | 0.165 | inactive
EXOC8 (exocyst complex component 8) | 1 | 0.357 | inactive
EXOC8 (exocyst complex component 8) | 2 | 0.11 | inactive
EXOC8 (exocyst complex component 8) | 3 | 1.05 | inactive
ATP6AP1 (ATPase H+ transporting accessory protein 1) | 1 | 0.256 | inactive
ATP6AP1 (ATPase H+ transporting accessory protein 1) | 2 | -1.61 | inactive
ATP6AP1 (ATPase H+ transporting accessory protein 1) | 3 | 1.97 | inactive
GIPC1 (GIPC PDZ domain containing family member 1) | 1 | -0.247 | inactive
GIPC1 (GIPC PDZ domain containing family member 1) | 2 | 0.23 | inactive
GIPC1 (GIPC PDZ domain containing family member 1) | 3 | -1.74 | inactive
NAGLU (N-acetyl-alpha-glucosaminidase) | 1 | 2.06 | inactive
NAGLU (N-acetyl-alpha-glucosaminidase) | 2 | 0.284 | inactive
NAGLU (N-acetyl-alpha-glucosaminidase) | 3 | -1.31 | inactive
HTR1A (5-hydroxytryptamine receptor 1A) | 1 | 0.126 | inactive
HTR1A (5-hydroxytryptamine receptor 1A) | 2 | 1.25 | inactive
HTR1A (5-hydroxytryptamine receptor 1A) | 3 | -0.537 | inactive
ISCA2 (iron-sulfur cluster assembly 2) | 1 | -0.689 | inactive
ISCA2 (iron-sulfur cluster assembly 2) | 2 | -2.18 | inactive
ISCA2 (iron-sulfur cluster assembly 2) | 3 | -0.739 | inactive
